Test results: the supplement of paper PMC10849652
The list shows a part of the results.

Sequences of proteins named here, by UniProt entry; tags and fusion partners are left off. A change or cut given only in a name is not applied to a line headed by its entry.
UniProt Q8IVT5: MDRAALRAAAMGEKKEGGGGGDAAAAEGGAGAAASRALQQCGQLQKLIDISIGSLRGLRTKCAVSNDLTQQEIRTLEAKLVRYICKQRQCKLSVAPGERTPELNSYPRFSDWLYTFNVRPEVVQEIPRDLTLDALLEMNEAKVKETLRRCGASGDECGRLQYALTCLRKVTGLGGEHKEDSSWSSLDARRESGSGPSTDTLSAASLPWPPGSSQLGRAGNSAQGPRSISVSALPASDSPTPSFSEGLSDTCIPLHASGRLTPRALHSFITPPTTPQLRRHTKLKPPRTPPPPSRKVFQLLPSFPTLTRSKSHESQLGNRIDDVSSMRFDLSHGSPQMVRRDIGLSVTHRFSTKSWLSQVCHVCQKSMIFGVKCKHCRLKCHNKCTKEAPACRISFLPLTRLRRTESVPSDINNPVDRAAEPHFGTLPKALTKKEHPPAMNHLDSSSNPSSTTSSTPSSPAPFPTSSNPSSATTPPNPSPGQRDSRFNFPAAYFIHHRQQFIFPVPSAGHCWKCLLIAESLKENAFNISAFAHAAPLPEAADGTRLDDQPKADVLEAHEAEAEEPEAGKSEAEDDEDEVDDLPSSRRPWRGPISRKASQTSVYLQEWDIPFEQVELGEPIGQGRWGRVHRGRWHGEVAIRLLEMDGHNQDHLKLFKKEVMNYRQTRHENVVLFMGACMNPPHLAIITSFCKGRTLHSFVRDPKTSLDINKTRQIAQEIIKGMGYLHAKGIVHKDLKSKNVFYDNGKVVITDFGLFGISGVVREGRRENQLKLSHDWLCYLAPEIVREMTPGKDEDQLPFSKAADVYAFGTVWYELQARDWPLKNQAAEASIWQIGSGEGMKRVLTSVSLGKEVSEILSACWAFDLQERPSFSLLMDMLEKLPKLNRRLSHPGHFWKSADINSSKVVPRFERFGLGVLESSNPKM
UniProt Q14974, whole entry, looked up: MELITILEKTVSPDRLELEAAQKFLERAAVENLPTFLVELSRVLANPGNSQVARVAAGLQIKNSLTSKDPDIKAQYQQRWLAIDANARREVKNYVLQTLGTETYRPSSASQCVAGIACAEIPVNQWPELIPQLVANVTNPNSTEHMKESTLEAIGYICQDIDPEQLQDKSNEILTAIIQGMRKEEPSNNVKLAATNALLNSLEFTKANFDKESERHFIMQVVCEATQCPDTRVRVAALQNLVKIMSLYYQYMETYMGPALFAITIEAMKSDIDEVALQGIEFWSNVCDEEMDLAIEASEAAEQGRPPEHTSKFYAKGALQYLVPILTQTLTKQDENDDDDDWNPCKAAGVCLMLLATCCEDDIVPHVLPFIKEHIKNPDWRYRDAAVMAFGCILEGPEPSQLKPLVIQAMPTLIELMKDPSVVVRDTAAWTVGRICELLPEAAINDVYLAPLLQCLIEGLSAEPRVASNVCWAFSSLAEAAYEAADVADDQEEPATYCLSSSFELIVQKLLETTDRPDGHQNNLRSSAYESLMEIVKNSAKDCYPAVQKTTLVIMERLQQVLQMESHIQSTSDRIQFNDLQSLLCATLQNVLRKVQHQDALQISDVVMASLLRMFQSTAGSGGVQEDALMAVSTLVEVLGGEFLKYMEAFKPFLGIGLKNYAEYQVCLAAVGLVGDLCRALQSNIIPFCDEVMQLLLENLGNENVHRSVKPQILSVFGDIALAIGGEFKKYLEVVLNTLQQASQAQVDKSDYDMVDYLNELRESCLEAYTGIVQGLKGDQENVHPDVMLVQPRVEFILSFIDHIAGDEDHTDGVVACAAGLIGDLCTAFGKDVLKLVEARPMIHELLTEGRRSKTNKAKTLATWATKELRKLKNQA
UniProt O94889: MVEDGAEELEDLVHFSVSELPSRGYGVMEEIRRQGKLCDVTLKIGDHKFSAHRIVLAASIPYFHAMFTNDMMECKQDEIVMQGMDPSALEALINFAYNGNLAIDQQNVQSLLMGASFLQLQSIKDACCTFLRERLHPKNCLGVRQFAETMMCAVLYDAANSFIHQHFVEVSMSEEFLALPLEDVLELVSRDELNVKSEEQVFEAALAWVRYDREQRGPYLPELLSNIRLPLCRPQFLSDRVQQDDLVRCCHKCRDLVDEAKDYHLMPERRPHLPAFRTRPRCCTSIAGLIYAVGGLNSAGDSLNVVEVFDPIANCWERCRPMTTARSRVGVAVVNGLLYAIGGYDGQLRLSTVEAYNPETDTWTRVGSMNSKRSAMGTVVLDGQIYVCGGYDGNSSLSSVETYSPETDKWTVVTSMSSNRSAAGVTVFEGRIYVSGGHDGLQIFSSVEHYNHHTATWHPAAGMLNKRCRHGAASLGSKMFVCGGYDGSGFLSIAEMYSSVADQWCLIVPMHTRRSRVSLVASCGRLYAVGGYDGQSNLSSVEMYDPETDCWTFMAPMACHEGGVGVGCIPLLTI
UniProt Q96EK5: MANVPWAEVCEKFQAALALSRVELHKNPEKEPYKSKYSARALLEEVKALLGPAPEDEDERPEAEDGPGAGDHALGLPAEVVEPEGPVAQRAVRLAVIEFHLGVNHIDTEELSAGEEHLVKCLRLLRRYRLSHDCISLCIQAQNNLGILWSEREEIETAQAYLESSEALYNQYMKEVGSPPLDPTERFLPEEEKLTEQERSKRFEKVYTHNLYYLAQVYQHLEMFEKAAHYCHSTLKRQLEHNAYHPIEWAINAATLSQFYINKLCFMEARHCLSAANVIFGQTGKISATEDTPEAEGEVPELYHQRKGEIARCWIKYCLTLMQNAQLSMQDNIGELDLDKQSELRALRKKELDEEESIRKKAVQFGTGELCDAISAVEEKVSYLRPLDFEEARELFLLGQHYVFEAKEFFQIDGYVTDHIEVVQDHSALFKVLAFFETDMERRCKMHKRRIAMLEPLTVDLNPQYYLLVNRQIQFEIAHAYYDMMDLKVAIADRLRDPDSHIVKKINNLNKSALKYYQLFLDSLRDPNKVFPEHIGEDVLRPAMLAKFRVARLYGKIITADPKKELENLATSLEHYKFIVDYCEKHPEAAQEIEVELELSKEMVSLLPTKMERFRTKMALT
UniProt P52294, whole entry, looked up: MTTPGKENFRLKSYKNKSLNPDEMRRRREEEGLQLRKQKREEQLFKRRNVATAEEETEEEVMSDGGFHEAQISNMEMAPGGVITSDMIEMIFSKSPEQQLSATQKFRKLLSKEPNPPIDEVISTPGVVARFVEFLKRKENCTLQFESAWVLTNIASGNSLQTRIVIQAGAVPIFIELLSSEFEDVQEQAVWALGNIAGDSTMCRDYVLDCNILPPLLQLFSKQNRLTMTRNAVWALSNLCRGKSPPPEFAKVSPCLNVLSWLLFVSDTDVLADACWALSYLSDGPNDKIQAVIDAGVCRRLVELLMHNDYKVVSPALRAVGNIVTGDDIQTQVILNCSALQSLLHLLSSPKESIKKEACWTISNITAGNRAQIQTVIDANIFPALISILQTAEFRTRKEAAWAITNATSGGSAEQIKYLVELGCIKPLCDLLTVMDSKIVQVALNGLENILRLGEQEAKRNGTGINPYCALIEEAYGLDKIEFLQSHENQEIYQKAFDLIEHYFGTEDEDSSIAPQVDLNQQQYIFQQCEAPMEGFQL
UniProt Q9H0B6: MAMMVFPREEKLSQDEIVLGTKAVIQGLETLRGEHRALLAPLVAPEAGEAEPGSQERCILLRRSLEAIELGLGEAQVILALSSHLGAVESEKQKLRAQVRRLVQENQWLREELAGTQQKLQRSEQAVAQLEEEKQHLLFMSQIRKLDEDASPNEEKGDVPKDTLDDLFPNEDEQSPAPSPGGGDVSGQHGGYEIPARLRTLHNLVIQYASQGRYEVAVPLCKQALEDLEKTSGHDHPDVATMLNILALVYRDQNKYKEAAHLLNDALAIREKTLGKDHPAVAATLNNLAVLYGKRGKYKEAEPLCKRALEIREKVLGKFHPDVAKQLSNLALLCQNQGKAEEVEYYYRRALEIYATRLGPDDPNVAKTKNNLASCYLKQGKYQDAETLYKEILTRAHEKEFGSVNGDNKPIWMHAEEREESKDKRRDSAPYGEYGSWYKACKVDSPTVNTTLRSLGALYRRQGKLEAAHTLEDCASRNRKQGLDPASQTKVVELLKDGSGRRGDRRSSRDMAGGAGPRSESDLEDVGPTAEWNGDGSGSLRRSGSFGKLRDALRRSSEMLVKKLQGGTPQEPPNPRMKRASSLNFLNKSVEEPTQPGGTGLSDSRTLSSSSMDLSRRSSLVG
UniProt Q14145, whole entry, looked up: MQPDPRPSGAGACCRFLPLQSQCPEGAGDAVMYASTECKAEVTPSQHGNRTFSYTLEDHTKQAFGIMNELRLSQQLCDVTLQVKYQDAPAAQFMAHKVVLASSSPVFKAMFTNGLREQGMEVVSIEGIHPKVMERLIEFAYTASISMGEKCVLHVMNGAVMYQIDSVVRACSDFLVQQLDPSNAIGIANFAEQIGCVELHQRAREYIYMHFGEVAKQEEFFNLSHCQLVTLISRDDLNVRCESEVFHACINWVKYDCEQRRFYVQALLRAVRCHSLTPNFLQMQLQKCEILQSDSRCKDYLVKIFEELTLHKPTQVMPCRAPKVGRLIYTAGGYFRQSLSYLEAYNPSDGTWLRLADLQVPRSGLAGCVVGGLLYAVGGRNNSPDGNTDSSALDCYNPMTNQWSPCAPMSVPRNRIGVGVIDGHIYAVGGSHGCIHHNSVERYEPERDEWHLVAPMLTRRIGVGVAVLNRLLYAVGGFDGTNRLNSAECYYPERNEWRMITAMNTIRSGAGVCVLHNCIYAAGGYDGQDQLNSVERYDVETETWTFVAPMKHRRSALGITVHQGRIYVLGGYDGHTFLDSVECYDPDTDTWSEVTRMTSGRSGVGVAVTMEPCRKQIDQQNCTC
UniProt O60333: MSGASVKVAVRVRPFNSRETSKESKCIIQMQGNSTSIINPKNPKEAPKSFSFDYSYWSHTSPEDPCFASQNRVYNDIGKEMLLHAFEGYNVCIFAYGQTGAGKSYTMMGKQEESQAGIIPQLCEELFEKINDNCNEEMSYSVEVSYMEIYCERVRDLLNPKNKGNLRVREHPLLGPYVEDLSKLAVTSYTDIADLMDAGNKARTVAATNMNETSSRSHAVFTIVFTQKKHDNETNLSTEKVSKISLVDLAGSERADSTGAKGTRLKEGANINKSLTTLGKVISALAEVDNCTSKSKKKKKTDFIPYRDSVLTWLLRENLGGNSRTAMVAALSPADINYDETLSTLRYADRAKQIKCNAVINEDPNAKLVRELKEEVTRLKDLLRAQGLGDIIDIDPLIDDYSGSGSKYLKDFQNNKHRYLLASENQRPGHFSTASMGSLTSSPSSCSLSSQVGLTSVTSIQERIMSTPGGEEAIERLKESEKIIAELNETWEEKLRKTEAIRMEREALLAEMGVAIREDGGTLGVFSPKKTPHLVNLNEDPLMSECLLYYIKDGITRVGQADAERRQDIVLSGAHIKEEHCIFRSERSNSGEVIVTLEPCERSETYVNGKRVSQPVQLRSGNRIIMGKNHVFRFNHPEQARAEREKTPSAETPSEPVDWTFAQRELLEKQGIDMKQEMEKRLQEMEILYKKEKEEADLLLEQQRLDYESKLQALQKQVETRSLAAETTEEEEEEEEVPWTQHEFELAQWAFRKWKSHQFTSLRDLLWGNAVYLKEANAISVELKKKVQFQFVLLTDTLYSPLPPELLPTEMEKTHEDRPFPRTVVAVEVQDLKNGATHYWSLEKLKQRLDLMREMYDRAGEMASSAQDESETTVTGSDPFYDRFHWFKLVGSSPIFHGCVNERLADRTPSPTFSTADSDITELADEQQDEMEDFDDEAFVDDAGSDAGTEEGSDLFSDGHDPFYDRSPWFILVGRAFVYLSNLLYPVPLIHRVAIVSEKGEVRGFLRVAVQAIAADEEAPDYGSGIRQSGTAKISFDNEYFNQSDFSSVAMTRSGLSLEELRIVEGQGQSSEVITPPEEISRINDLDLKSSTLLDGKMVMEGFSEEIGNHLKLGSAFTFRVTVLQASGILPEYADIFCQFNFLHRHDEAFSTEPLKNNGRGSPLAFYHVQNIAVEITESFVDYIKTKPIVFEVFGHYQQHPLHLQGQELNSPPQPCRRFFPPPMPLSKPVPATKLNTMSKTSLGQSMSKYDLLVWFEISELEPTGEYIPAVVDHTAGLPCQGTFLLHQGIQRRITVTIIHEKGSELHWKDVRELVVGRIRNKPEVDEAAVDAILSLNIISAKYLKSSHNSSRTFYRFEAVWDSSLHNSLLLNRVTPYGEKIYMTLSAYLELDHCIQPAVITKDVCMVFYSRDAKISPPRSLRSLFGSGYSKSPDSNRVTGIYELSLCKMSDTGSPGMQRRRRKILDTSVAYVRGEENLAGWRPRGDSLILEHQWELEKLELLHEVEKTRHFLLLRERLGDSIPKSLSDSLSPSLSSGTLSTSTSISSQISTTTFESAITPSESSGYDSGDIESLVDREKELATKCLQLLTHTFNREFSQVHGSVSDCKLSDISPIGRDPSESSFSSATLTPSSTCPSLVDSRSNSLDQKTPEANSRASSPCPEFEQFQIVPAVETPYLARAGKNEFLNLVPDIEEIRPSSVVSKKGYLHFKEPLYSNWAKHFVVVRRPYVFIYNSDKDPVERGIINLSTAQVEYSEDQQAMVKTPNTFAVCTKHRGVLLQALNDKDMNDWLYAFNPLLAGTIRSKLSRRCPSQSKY

Compound: CC[C@@H]1C(=O)N(C)c2cnc(Nc3ccc(C(=O)N[C@H]4CC[C@H](N5CCN(CC6CC6)CC5)CC4)cc3OC)nc2N1C(C)C [volasertib]
Assay: log2 fold change, soluble protein after heating vs DMSO (PISA); higher = thermal stabilisation; K562 cells, 10 uM, 30 min; active = over 0.2 and 3.5 SD of the protein, either way, in both replicates (recomputed)
How it was run: (§1)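 Soluble protein was defined as the supernatant after 21,000xg for 90 min. It came from K562 cells at 2×10^6 cells/mL given 10 μM compound for 30 min, heated in aliquots for 3 min across 48°C-58°C, pooled, and extracted in PBS with 0.5% NP-40 at 4°C, and was quantified by TMTpro 16plex LC-MS/MS with equalised channel sums. Thermal stability against control samples, from duplicates, is reported as log2 fold change.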

Row | Target | log2 fold change
1 | KSR1 (UniProt Q8IVT5) | inactive: -0.182
2 | KIF3A (UniProt Q9Y496) | inactive: -0.039
3 | KPNB1 (UniProt Q14974) | active: -0.432
4 | KCNN4 (UniProt O15554) | inactive: -0.209
5 | KLHL18 (UniProt O94889) | inactive: -0.178
6 | KNOP1 (UniProt Q1ED39) | inactive: -0.013
7 | KIFBP (UniProt Q96EK5) | active: -0.333
8 | KIF13B (UniProt Q9NQT8) | inactive: -0.246
9 | KCNK5 (UniProt O95279) | inactive: -0.174
10 | KPNA1 (UniProt P52294) | active: -0.312
11 | KIAA1755 (UniProt Q5JYT7) | inactive: -0.027
12 | KAT7 (UniProt O95251) | inactive: -0.001
13 | KATNBL1 (UniProt Q9H079) | inactive: 0.089
14 | KIF14 (UniProt Q15058) | inactive: 0.123
15 | KHDC4 (UniProt Q7Z7F0) | active: -0.236
16 | KNTC1 (UniProt P50748) | active: -0.504
17 | KIF3B (UniProt O15066) | inactive: -0.009
18 | KLC2 (UniProt Q9H0B6) | inactive: -0.059
19 | KIZ (UniProt Q2M2Z5) | inactive: 0.262
20 | KAT6B (UniProt Q8WYB5) | inactive: 0.013
21 | KIF26A (UniProt Q9ULI4) | inactive: 0.074
22 | KLF1 (UniProt Q13351) | inactive: 0.053
23 | KNG1 (UniProt P01042) | inactive: 0.125
24 | KEAP1 (UniProt Q14145) | active: -0.357
25 | KLF16 (UniProt Q9BXK1) | inactive: 0.08
26 | KIF1B isoform 4 (UniProt O60333) | inactive: -0.11
27 | KIF11 (UniProt P52732) | inactive: -0.42
28 | JMJD6 isoform 3 (UniProt Q6NYC1) | active: -0.306
29 | JPT2 isoform 2 (UniProt Q9H910) | inactive: -0.069

Compound: CC[C@H](C)N1C=C(C2=C(C=C(C=C21)C3=CN=C(C=C3)N4CCNCC4)C(=O)NCC5=C(C=C(NC5=O)C)C)C
Assay: as above
How it was run: as §1

Row | Target | log2 fold change
30 | KSR1 (UniProt Q8IVT5) | inactive: 0.179
31 | KIF3A (UniProt Q9Y496) | inactive: -0.187
32 | KPNB1 (UniProt Q14974) | inactive: 0.04
33 | JUNB (UniProt P17275) | inactive: 0.04
34 | KCNN4 (UniProt O15554) | inactive: 0.138
35 | KLHL18 (UniProt O94889) | inactive: -0.123
36 | KNOP1 (UniProt Q1ED39) | inactive: -0.179
37 | KIFBP (UniProt Q96EK5) | inactive: 0.11
38 | KPNA1 (UniProt P52294) | inactive: 0.115
39 | KIFC3 isoform 6 (UniProt Q9BVG8) | inactive: -0.225
40 | KAT7 (UniProt O95251) | inactive: -0.244
41 | KBTBD4 isoform 2 (UniProt Q9NVX7) | inactive: -0.013
42 | KHDC4 (UniProt Q7Z7F0) | inactive: 0.107
43 | KNTC1 (UniProt P50748) | inactive: 0.022
44 | KLC2 (UniProt Q9H0B6) | inactive: 0.038
45 | KRTCAP2 isoform 2 (UniProt Q8N6L1) | inactive: -0.041
46 | KAT6B (UniProt Q8WYB5) | inactive: -0.064
47 | KIF26A (UniProt Q9ULI4) | inactive: 0.001
48 | KLF1 (UniProt Q13351) | inactive: -0.166
49 | KNG1 (UniProt P01042) | inactive: -0.097
50 | KEAP1 (UniProt Q14145) | inactive: -0.034
51 | KLF16 (UniProt Q9BXK1) | inactive: -0.072
52 | KIF1B isoform 4 (UniProt O60333) | inactive: 0.052
53 | KIF11 (UniProt P52732) | inactive: 0.081
54 | JMJD6 isoform 3 (UniProt Q6NYC1) | inactive: -0.012
55 | JPT2 isoform 2 (UniProt Q9H910) | inactive: -0.022

Compound: CC[C@H](C)[C@@H](C(=O)N[C@@H]([C@@H](C)O)C(=O)N[C@@H](CC(C)C)C(=O)[C@]1(CO1)C)NC(=O)[C@H]([C@@H](C)CC)N(C)C(=O)C [epoxomicin]
Assay: as above
How it was run: as §1

Row | Target | log2 fold change
56 | KSR1 (UniProt Q8IVT5) | inactive: 0.047
57 | KIF3A (UniProt Q9Y496) | inactive: 0.068
58 | KPNB1 (UniProt Q14974) | inactive: 0.04
59 | JUNB (UniProt P17275) | inactive: -0.07
60 | KLHL18 (UniProt O94889) | active: 0.36
61 | KIFBP (UniProt Q96EK5) | inactive: -0.035
62 | KIF13B (UniProt Q9NQT8) | inactive: 0.045
63 | KCNK5 (UniProt O95279) | inactive: 0.046
64 | KPNA1 (UniProt P52294) | inactive: -0.051
65 | KIFC3 isoform 6 (UniProt Q9BVG8) | inactive: -0.165
66 | KIAA1755 (UniProt Q5JYT7) | inactive: -0.179
67 | KIF14 (UniProt Q15058) | inactive: -0.091
68 | KBTBD4 isoform 2 (UniProt Q9NVX7) | inactive: -0.001
69 | KHDC4 (UniProt Q7Z7F0) | inactive: 0.036
70 | KNTC1 (UniProt P50748) | inactive: 0.016
71 | KIF3B (UniProt O15066) | inactive: -0.134
72 | KLC2 (UniProt Q9H0B6) | inactive: 0.015
73 | KRTCAP2 isoform 2 (UniProt Q8N6L1) | inactive: -0.047
74 | KEAP1 (UniProt Q14145) | inactive: -0.024
75 | KIF1B isoform 4 (UniProt O60333) | inactive: 0.039
76 | KIF11 (UniProt P52732) | inactive: -0.032
77 | JMJD6 isoform 3 (UniProt Q6NYC1) | inactive: -0.015
